Laboratory results published in the supplement of paper PMC10849652.
Some of the results follow.

Protein sequences, listed by entry. Tags and fused reporters are not part of them. Lines headed by an entry give the natural chain unless they say otherwise; changes in a name come on top.
UniProt P53794: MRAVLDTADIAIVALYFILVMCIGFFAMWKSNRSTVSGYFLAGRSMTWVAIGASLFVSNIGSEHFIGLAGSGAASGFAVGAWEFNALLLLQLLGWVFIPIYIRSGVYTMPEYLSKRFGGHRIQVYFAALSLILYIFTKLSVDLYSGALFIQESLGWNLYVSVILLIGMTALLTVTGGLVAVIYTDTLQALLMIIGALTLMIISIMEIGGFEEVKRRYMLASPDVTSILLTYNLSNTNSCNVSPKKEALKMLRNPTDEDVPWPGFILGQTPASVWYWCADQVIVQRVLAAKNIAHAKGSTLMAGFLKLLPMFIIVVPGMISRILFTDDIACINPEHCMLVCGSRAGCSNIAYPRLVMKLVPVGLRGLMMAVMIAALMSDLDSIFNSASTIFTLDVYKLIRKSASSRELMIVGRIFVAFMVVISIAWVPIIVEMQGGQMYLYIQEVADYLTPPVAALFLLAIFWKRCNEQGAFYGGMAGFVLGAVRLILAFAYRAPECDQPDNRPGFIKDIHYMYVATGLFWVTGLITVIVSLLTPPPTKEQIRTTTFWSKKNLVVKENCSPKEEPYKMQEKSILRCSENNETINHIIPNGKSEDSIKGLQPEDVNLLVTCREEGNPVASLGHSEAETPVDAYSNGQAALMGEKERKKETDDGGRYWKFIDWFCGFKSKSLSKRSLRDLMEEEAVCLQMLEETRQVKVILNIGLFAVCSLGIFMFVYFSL
UniProt Q9H936: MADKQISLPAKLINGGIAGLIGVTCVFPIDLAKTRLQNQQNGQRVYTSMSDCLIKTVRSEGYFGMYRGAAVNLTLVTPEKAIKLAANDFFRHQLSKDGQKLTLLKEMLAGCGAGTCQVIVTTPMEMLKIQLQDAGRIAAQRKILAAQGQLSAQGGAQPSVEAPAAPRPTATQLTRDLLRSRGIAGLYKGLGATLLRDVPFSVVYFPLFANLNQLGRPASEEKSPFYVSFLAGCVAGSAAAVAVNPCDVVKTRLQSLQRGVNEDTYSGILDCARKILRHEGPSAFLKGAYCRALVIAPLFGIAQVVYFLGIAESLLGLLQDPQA
UniProt Q9BRV3: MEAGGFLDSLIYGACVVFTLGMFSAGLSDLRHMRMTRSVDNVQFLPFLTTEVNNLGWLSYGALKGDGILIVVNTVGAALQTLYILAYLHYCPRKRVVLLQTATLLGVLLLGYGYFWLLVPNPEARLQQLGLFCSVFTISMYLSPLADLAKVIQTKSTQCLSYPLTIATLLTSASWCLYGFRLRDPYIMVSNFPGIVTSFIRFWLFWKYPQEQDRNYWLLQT
UniProt Q9Y6M5: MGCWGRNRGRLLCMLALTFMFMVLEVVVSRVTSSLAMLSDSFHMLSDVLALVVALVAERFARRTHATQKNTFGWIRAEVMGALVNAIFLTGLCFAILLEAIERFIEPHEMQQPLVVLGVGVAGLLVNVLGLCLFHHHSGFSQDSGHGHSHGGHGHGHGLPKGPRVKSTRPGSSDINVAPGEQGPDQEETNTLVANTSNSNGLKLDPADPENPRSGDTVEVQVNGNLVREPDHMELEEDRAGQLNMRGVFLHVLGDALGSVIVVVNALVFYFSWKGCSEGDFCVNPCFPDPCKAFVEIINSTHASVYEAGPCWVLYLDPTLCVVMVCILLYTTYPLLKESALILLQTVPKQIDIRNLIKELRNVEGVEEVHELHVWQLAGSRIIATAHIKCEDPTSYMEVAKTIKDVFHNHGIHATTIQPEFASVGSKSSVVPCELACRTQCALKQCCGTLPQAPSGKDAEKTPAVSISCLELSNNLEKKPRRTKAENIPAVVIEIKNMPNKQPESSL
UniProt Q6NUK1: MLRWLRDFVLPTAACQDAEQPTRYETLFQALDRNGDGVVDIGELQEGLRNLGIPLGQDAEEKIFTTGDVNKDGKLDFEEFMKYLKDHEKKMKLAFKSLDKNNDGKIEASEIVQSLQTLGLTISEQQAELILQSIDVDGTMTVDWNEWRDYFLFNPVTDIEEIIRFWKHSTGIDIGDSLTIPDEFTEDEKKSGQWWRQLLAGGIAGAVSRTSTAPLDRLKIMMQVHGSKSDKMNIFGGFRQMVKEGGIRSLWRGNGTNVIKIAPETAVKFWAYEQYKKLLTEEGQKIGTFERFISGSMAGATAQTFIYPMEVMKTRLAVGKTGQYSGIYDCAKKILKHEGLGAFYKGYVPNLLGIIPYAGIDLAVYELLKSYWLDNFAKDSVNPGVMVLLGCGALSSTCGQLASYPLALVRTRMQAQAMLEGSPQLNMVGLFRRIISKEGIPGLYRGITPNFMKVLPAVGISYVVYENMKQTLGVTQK
UniProt Q9HC21: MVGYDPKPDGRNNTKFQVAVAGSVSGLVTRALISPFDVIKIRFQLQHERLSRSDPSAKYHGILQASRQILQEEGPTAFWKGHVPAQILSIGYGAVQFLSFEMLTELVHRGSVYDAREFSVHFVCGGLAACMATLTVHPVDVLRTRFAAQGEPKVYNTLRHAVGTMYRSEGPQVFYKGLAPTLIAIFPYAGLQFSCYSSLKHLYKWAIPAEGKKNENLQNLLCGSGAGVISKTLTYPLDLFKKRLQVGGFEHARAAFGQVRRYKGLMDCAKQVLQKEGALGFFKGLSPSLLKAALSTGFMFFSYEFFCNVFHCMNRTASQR
UniProt Q9BZJ4: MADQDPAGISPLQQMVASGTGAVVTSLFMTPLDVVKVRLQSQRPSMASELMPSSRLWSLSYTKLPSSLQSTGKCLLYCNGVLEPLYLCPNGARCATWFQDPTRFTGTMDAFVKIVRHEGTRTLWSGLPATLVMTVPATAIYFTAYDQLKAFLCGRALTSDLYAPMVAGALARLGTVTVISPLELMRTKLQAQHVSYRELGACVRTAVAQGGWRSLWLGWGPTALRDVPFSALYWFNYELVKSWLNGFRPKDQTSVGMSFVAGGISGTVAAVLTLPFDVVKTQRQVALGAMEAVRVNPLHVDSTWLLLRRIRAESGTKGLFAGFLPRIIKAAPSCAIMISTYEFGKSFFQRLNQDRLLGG
UniProt Q96CQ1: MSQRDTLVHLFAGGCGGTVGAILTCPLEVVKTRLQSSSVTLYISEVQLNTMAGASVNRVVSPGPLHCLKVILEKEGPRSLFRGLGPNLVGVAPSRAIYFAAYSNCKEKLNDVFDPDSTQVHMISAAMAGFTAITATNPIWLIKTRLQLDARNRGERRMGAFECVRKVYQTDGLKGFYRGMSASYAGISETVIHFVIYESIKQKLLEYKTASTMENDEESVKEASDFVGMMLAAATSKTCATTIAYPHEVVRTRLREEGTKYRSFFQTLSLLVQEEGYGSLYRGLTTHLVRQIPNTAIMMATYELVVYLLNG
UniProt Q8N2U9: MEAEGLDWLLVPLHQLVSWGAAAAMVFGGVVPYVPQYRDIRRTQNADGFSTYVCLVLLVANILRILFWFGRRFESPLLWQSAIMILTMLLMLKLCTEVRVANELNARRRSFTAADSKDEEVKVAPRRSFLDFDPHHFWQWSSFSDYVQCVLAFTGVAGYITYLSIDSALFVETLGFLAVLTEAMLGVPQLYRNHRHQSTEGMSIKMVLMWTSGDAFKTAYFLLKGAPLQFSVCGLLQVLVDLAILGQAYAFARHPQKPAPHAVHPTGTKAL
UniProt Q8WV83: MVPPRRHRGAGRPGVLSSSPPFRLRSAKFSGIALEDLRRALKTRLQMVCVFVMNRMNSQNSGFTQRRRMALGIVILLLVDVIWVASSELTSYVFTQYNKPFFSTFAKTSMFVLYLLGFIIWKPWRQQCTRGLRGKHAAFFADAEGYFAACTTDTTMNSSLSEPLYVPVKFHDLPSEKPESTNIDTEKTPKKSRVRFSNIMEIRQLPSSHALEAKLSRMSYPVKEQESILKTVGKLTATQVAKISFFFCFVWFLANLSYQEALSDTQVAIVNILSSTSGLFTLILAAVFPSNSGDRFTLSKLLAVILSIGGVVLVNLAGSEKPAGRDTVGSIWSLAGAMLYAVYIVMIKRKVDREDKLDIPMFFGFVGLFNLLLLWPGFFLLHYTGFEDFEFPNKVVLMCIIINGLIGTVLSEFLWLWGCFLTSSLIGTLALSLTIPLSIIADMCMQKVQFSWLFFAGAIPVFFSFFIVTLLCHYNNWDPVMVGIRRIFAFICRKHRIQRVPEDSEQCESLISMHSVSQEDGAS
UniProt Q96A46: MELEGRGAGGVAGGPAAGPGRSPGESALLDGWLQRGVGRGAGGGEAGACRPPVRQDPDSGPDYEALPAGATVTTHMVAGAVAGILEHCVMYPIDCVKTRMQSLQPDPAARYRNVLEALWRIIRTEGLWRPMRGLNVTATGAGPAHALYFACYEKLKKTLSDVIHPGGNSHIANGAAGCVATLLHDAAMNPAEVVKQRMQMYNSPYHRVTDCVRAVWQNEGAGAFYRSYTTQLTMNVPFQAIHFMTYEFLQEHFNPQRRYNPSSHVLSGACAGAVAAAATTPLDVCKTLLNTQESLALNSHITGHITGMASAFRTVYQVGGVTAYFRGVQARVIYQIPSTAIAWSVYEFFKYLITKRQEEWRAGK
UniProt Q8IVJ1: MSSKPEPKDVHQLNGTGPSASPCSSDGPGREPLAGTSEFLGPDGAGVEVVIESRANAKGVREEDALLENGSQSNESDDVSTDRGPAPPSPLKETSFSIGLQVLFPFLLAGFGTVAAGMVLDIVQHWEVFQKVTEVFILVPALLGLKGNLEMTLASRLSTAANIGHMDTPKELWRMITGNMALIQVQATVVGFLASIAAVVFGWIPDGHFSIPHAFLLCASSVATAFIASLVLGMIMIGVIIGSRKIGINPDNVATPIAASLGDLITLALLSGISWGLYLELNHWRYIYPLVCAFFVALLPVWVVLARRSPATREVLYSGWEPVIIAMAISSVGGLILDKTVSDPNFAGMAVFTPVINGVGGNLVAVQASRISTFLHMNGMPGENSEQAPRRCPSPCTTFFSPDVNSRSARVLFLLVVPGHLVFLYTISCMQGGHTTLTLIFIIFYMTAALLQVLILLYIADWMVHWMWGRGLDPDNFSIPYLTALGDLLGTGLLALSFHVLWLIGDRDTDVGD
UniProt P14672: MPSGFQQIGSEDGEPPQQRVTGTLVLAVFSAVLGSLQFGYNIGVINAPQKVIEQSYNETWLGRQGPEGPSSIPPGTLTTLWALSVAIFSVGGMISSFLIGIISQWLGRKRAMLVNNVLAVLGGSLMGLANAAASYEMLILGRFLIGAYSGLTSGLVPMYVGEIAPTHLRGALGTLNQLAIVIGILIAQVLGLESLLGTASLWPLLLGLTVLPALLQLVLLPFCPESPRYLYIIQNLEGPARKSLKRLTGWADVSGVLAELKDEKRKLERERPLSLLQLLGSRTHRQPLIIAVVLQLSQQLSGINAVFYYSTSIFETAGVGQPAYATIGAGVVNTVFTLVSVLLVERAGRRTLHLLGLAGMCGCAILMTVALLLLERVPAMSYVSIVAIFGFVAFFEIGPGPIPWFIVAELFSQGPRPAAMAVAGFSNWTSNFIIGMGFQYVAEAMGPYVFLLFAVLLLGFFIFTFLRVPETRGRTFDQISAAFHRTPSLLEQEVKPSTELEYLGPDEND
UniProt Q9H015: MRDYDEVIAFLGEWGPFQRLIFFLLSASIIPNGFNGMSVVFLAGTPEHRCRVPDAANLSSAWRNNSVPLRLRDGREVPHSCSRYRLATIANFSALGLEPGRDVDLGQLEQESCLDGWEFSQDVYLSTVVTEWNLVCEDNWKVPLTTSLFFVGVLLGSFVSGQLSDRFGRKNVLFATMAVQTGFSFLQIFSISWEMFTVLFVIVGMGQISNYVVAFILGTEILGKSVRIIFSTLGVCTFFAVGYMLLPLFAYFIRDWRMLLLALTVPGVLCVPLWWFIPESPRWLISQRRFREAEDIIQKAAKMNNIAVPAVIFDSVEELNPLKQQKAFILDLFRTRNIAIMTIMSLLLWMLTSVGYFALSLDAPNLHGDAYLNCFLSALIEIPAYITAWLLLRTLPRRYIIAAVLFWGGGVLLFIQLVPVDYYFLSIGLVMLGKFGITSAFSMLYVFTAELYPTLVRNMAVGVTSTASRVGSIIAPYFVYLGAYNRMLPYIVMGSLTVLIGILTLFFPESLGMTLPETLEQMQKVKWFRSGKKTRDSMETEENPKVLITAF
UniProt Q8N8R3: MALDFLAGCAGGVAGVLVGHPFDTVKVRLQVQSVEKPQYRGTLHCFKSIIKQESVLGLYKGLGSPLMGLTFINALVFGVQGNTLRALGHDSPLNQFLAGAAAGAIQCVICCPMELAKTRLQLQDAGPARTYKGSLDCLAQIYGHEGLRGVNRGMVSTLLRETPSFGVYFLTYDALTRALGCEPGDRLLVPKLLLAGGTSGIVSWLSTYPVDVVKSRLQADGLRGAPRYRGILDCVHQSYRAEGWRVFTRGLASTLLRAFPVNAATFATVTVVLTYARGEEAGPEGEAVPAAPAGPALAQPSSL
UniProt P78383: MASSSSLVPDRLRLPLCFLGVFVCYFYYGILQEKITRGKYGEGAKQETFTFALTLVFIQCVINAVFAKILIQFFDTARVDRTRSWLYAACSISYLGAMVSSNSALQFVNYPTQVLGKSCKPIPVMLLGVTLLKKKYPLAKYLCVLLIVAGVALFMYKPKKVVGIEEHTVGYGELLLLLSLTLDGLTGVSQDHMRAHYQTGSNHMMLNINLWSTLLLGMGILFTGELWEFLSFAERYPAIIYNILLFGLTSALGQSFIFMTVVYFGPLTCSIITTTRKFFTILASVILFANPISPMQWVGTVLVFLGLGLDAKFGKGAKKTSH

Tests used:
Assay in all cases: log2 fold change, soluble protein after heating vs DMSO (PISA); higher = thermal stabilisation; K562 cells, 10 uM, 30 min; active = over 0.2 and 3.5 SD of the protein, either way, in both replicates (recomputed)
[1] = compound: C#Cc1cccc(Nc2ncnc3cc(OCCOC)c(OCCOC)cc23)c1 [erlotinib]
Method in brief: (§1)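 For each measurement, 10 μM compound was applied for 30 min to K562 cells at 2×10^6 cells/mL. Aliquots were heated for 3 min across 48°C-58°C, pooled, and extracted in PBS with 0.5% NP-40 at 4°C; the supernatant after 21,000xg for 90 min was soluble protein. This was quantified by TMTpro 16plex LC-MS/MS with channel sums equalised, and thermal stability was reported relative to control samples from duplicates, on a log2 fold-change scale.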

[2] = compound: C/C(=N\NC(=O)C1=CC(=CC=C1)S(=O)(=O)N2CCOCC2)/C3=C(C=CC(=C3)Cl)O
Method in brief: as §1

[3] = compound: C1=CC(=C(C=C1Cl)C2=NC3=NC=CN=C3C(=N2)NC4=CC=NC=C4)F
Method in brief: as §1

[4] = compound: C1=CC(=CC=C1C2=NC3=C(N2)C=C(C=C3)C(=O)N)OC4=CC=C(C=C4)Cl
Method in brief: as §1

[5] = compound: C1=CC2=C(C=CC(=C2)/C=C\3/C(=O)NC(=NCC4=CC=CS4)S3)N=C1
Method in brief: as §1

[6] = compound: C1=CC2=NC=CN=C2C=C1/C=C/3\C(=O)NC(=O)S3
Method in brief: as §1

[7] = compound: C1=CC=C(C=C1)C2=NC(=C(N2)C3=CC=NC=C3)C4=CC(=C(C=C4)Cl)O
Method in brief: as §1

[8] = compound: C1=CC=C2C(=C1)C3=NNC4=CC=CC(=C43)C2=O
Method in brief: as §1

[9] = compound: C1CCN(C1)C(=O)NC2=CC=CC(=C2)NC3=NC=C(C(=N3)NCCC4=CN=CN4)Br
Method in brief: as §1

[10] = compound: C1CN(CCC1(CC2=CC=C(C=C2)Cl)N)C3=NC=NC4=C3C=CN4
Method in brief: as §1

Measured: log2 fold change

SLC25A15 (UniProt Q9Y619)
inactive: [1] -0.022 | [2] 0.009 | [3] 0.037 | [4] 0.024 | [5] 0.039 | [6] 0.044 | [7] -0.006 | [8] -0.006 | [9] 0.045 | [10] 0.126

SLC25A23 isoform 3 (UniProt Q9BV35)
inactive: [1] 0.059 | [2] 0.064 | [4] -0.111 | [5] -0.049 | [6] 0.127 | [7] -0.074 | [8] 0.062 | [9] -0.049 | [10] 0.125

SLC5A3 (UniProt P53794)
inactive: [1] -0.025 | [2] -0.012 | [3] 0.052 | [4] 0.017 | [5] -0.036 | [6] 0.032 | [7] 0.023 | [8] -0.155 | [9] -0.034 | [10] 0.074

SLC11A2 isoform 3 (UniProt P49281)
inactive: [1] -0.011 | [2] -0.11 | [3] 0.072 | [4] 0 | [5] -0.019 | [6] 0.077 | [7] 0.238 | [8] -0.025 | [9] -0.039 | [10] 0.048

SLC25A22 (UniProt Q9H936)
inactive: [1] 0.024 | [2] 0.01 | [3] 0.024 | [4] -0.023 | [5] 0.012 | [6] 0.047 | [7] 0 | [8] -0.003 | [9] 0.033 | [10] 0.004

SLC29A2 (UniProt Q14542)
inactive: [1] 0.007 | [2] 0.053 | [3] -0.01 | [4] 0.043 | [5] 0.097 | [6] 0 | [7] 0.059 | [8] -0.004 | [9] -0.012 | [10] 0.123

SLC35C1 (UniProt Q96A29)
inactive: [1] 0.063 | [2] 0.033 | [3] 0.173 | [4] -0.051 | [5] 0 | [6] 0.065 | [7] -0.035 | [8] -0.014 | [9] 0.043 | [10] 0.059

SLC50A1 (UniProt Q9BRV3)
inactive: [1] -0.148 | [2] 0.08 | [4] -0.211 | [5] 0.683 | [6] 0.13 | [7] -0.037 | [8] -0.138

SLC30A1 (UniProt Q9Y6M5)
inactive: [1] 0.005 | [2] -0.036 | [3] 0.073 | [4] 0.01 | [5] -0.059 | [6] -0.011 | [7] 0.066 | [8] -0.071 | [9] -0.054 | [10] 0.101

SLC26A6 (UniProt Q9BXS9)
inactive: [1] 0.043 | [2] 0.015 | [3] -0.008 | [4] 0.034 | [5] 0.011 | [6] -0.083 | [7] -0.162 | [8] -0.063 | [9] -0.098 | [10] 0.092

SLC19A2 (UniProt O60779)
inactive: [1] -0.147 | [2] 0.094 | [3] -0.541 | [4] 0.281 | [5] -0.087 | [7] 0.085 | [8] 0.009 | [9] -0.054 | [10] 0.077

SLC30A10 (UniProt Q6XR72)
inactive: [1] 0.033 | [2] 0.068 | [3] -0.06 | [4] 0.001 | [5] 0.077 | [6] 0.008 | [7] 0.025 | [8] -0.003 | [9] -0.054 | [10] 0.115

SLC25A24 (UniProt Q6NUK1)
inactive: [1] -0.025 | [2] -0.028 | [3] 0.043 | [4] 0.008 | [5] -0.013 | [6] 0.032 | [7] -0.002 | [8] -0.012 | [9] 0.027 | [10] 0.049

SLC39A14 (UniProt Q15043)
inactive: [1] 0.019 | [2] -0.047 | [3] 0.013 | [4] 0.029 | [5] 0.034 | [6] 0.068 | [7] -0.041 | [8] -0.069 | [9] 0.004 | [10] 0.051

Quoted at random: 2 entries already listed, in no set order.
SLC26A6 (UniProt Q9BXS9)
inactive: [1] 0.043 | [2] 0.015 | [3] -0.008 | [4] 0.034 | [5] 0.011 | [6] -0.083 | [7] -0.162 | [8] -0.063 | [9] -0.098 | [10] 0.092

SLC30A10 (UniProt Q6XR72)
inactive: [1] 0.033 | [2] 0.068 | [3] -0.06 | [4] 0.001 | [5] 0.077 | [6] 0.008 | [7] 0.025 | [8] -0.003 | [9] -0.054 | [10] 0.115

Additional records

SLC7A11 (UniProt Q9UPY5)
inactive: [1] -0.093 | [2] -0.021 | [3] 0.145 | [4] 0.048 | [5] 0.034 | [6] 0.05 | [7] 0.016 | [8] -0.015 | [9] -0.024 | [10] 0.072

SLC29A3 (UniProt Q9BZD2)
inactive: [1] 0.155 | [2] 0.024 | [3] 0.028 | [4] 0.043 | [5] 0.042 | [6] 0.098 | [7] 0.064 | [8] 0 | [9] 0.074 | [10] 0.052

SLC25A19 (UniProt Q9HC21)
inactive: [1] 0.005 | [2] -0.012 | [3] 0.052 | [4] 0 | [5] -0.01 | [6] 0.03 | [7] -0.032 | [8] -0.033 | [9] 0.034 | [10] 0.049

SLC25A39 (UniProt Q9BZJ4)
inactive: [1] -0.072 | [2] -0.217 | [3] 0.038 | [4] 0.062 | [5] 0.193 | [6] 0.118 | [7] -0.042 | [8] -0.046 | [9] -0.186 | [10] 0.112

SLC15A4 (UniProt Q8N697)
inactive: [1] -0.036 | [2] 0.025 | [4] 0.013 | [5] 0.049 | [6] -0.084 | [7] 0.133 | [8] -0.009 | [9] 0.021 | [10] 0.149

SLC38A10 (UniProt Q9HBR0)
inactive: [1] 0.059 | [2] -0.146 | [3] -0.023 | [4] -0.097 | [5] 0.025 | [6] 0.005 | [7] 0.003 | [8] -0.018 | [9] -0.052 | [10] 0.038

SLC25A36 (UniProt Q96CQ1)
inactive: [1] -0.077 | [2] 0.008 | [3] -0.083 | [4] 0.003 | [5] 0.031 | [6] 0.102 | [7] -0.104 | [8] -0.034 | [9] 0.053 | [10] 0.068

SLC25A33 (UniProt Q9BSK2)
inactive: [1] -0.02 | [2] -0.043 | [3] 0.106 | [4] 0.011 | [5] -0.017 | [6] 0.046 | [7] 0.009 | [8] -0.013 | [9] -0.032 | [10] 0.008

SLC66A2 (UniProt Q8N2U9)
inactive: [1] -0.085 | [3] -0.04 | [4] 0.102 | [6] 0.087

SLC36A1 (UniProt E5RG64)
inactive: [6] -0.514

SLC35F5 (UniProt Q8WV83)
inactive: [3] 0.008 | [6] 0.222

SLC35D1 (UniProt Q9NTN3)
inactive: [2] 0.046 | [5] 0.03 | [8] 0.049 | [9] -0.085 | [10] 0.087

SLC25A28 (UniProt Q96A46)
inactive: [6] -0.04

SLC41A1 (UniProt Q8IVJ1)
inactive: [3] 0.212 | [7] -0.207

SLC4A3 isoform 3 (UniProt P48751)
inactive: [2] 0.053 | [5] 0.236 | [6] 0.066 | [8] 0.107

SLC2A4 (UniProt P14672)
inactive: [1] -0.024 | [2] 0.014 | [4] 0.047 | [5] 0.035 | [6] 0.032 | [7] -0.219 | [8] 0.097 | [9] -0.037 | [10] -0.021

SLC22A4 (UniProt Q9H015)
inactive: [2] 0.056 | [3] 0.009 | [5] 0.034 | [7] 0.036 | [8] -0.034 | [9] -0.079 | [10] 0.041

SLC25A29 (UniProt Q8N8R3)
inactive: [1] -0.07 | [4] 0.374 | [7] 0.09 | [9] -0.105 | [10] 0.139

SLC35B1 isoform 2 (UniProt P78383)
inactive: [1] -0.024 | [3] -0.008 | [4] 0.127 | [6] 0.018 | [7] 0.085 | [9] -0.021 | [10] 0.271
